No constants are given. Whether binding was seen depends on the method and setting. In cells and extracts the contact can be indirect. Binding can be weak; no strength is given. Sequences can lack the tags named with a protein.
Biological target: T1, IGPR-1-Myc (immunoglobulin and proline-rich receptor-1), wild type (human) (UniProt Q96BF3)
T1 sequence: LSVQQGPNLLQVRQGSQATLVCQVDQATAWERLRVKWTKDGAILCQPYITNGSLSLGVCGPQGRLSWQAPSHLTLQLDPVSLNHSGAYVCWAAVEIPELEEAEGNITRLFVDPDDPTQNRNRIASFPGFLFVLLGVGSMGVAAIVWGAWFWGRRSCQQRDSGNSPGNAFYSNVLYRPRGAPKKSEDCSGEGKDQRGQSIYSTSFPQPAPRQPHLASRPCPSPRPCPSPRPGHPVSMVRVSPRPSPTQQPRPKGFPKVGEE
Assay: co-IP; HEK-293 cells expressing IGPR-1-Myc or Δ57/IGPR-1-Myc transfected with NEDD4-HA, lysed after 48 h; immunoprecipitation with anti-IGPR-1 or anti-Myc antibody, Western blot with anti-HA antibody

- binding: binds
Substance: NEDD4-HA (full-length, wild-type NEDD4) (from UniProt P46934-4) (enzyme)

Reference: article PMC8103646
